From paper PMC4398458, “Reversible Linkage of Two Distinct Small Molecule Inhibitors of Myc Generates a Dimeric Inhibitor with Improved Potency That Is Active in Myc Over-Expressing Cancer Cell Lines” (PLoS ONE, 2015)

System: c-Myc bHLH-LZ + Max
Assay: EMSA
Conditions: E07+N12 dimeric inhibitor, dose-dependent decrease of Myc:Max complex; EMSA: 100 mM KCl, 1 mM DTT, 1 mM EDTA, 50 mM Tris pH 7.4, 5 mM MgCl2, 0.002% NP40, 2% DMSO, room temperature; 200 ng Myc, 350 ng Max, 100 nM DNA, 10 ul; recombinant protein; label: none (SYBR Green stain)

GATCAGTTGACCACGTGGTCTGGG (double strand) [E-box oligonucleotide]
binding result: binds more weakly

Construct, isoform or probe ends are uncertain for at least one entry. A weaker result is weaker than the reference pair of the same experiment.
